From the supplement of paper PMC10849652
This is one part of the list.

The targets below were run with CS(=O)(=O)CCNCc1ccc(-c2ccc3ncnc(Nc4ccc(OCc5cccc(F)c5)c(Cl)c4)c3c2)o1 [lapatinib] (assay: log2 fold change, soluble protein after heating vs DMSO (PISA); higher = thermal stabilisation; K562 lysate, 10 uM; active = over 0.2 and 3.5 SD of the protein, either way, in both replicates (recomputed)).
How it was run: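 Following dounce homogenisation of K562 pellets in PBS pH 7.4 with 1 mM MgCl2, crude extract at 1 mg/mL protein was incubated for 30 min with 10 μM compound. Aliquots were then heated for 3 min over 48°C-58°C and pooled, NP-40 was added to 0.5% at 4°C, and soluble protein was recovered as the supernatant at 21,000xg for 90 min. Channel-sum-equalised TMTpro 16plex LC-MS/MS quantified this protein. Each value, from duplicates, is a log-two fold change in thermal stability relative to solvent controls.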

log2 fold change, inactive:
PPP4R4 (UniProt Q6NUP7) -0.15
PRKCQ (UniProt Q04759) -0.022
PPP1R3D (UniProt O95685) -0.031
PPP5C (UniProt P53041) -0.006
PRMT9 (UniProt Q6P2P2) -0.017
PRKAR1B (UniProt P31321) -0.034
PRKX (UniProt P51817) -0.075
PRORP (UniProt O15091) 0.039
PRNP (UniProt P04156) -0.034
PRPF19 (UniProt Q9UMS4) -0.022
PPP2R5B (UniProt Q15173) -0.089
PRKD3 (UniProt O94806) 0.031
PPP6R1 (UniProt Q9UPN7) 0.013
PPP6C isoform 3 (UniProt O00743) -0.011
PRKACA (UniProt P17612) -0.008
PRKD2 isoform 3 (UniProt Q9BZL6) 0.087
PPP2R3B (UniProt Q9Y5P8) 0.115
PPP1R14C (UniProt Q8TAE6) -0.044
PRKDC (UniProt P78527) -0.032
PRG4 (UniProt Q92954) -0.097
PPP1R13L (UniProt Q8WUF5) -0.154
PRMT1 (UniProt Q99873) 0
PROS1 (UniProt P07225) 0.007
PPP1R12B isoform 6 (UniProt O60237) -0.079
PRKCA (UniProt P17252) -0.041
PPP2CB (UniProt E5RHC1) -0.092
PPM1H (UniProt Q9ULR3) 0.013
PRADC1 (UniProt Q9BSG0) -0.088
PPP2R2D (UniProt Q66LE6) -0.015
PRMT7 (UniProt Q9NVM4) -0.006
PPP2R2A isoform 2 (UniProt P63151) -0.034
PPT1 (UniProt P50897) -0.01
PPP1CB (UniProt P62140) 0.005
PRPF6 (UniProt O94906) -0.008

A stretch from the list above, for reference:
log2 fold change, inactive:
PPP1CB (UniProt P62140) 0.005
PRPF6 (UniProt O94906) -0.008
